# Data as given in PubChem BioAssay AID1259254 (NCATS, 2017)
# Assay: 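Finding genes that stop cells copying their DNA twice in one cycle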 (primary screen)
# Cells: human HCT116 colorectal cancer cells
# Reagents: single siRNA against human genes
# Time to read-out: 3 days
# Detection: 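Imaged Hoechst DNA stain sorts each cell into a cycle phase by DNA amount; per plate, G2 fraction set to 0% for non-targeting and 100% for GMNN siRNA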
# Reading the numbers: G2 robust z-score: higher = more G2 cells, more excess DNA replication
# Active means: 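Active siRNAs have a G2 robust z of 5 or more median absolute deviations over the median, which in these data means about 38% or higher of GMNN control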
# Shown is an unselected part of about 59,000 reagents tested. In the full data, about 1,550 (2.6%) were called active. 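G2 share is only a proxy for re-replication; each gene was hit by three separate siRNAs, and active genes were retested.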 Further read-outs or replicates are left out here. Not stated in the record: the amount of reagent.
gene knocked down,PubChem SID,G2 robust z-score,Call
CYP2E1 (cytochrome P450 family 2 subfamily E member 1),SID160751585,0.0947,inactive
CYP2E1 (cytochrome P450 family 2 subfamily E member 1),SID160751595,4.88,inactive
CYP2E1 (cytochrome P450 family 2 subfamily E member 1),SID160751606,-0.273,inactive
LOC729532 (zinc finger protein 207 pseudogene),SID160772852,2.8,inactive
LOC729532 (zinc finger protein 207 pseudogene),SID160772853,-0.056,inactive
LOC729532 (zinc finger protein 207 pseudogene),SID160772854,-0.772,inactive
FREM1 (FRAS1 related extracellular matrix 1),SID160759627,-1.34,inactive
FREM1 (FRAS1 related extracellular matrix 1),SID160759628,0.0389,inactive
FREM1 (FRAS1 related extracellular matrix 1),SID160759630,-0.291,inactive
PTRH2 (peptidyl-tRNA hydrolase 2),SID160741155,1.3,inactive
PTRH2 (peptidyl-tRNA hydrolase 2),SID160741156,-0.226,inactive
PTRH2 (peptidyl-tRNA hydrolase 2),SID160741157,0.0124,inactive
COPS5 (COP9 signalosome subunit 5),SID160729679,0.0371,inactive
COPS5 (COP9 signalosome subunit 5),SID160729680,0.943,inactive
COPS5 (COP9 signalosome subunit 5),SID160729681,-0.226,inactive
CCN4 (cellular communication network factor 4),SID160720944,1.31,inactive
CCN4 (cellular communication network factor 4),SID160720945,-0.69,inactive
CCN4 (cellular communication network factor 4),SID160720946,0.799,inactive
LOC107984399,SID160772506,-1.18,inactive
LOC107984399,SID160772508,0.998,inactive
LOC107984399,SID160772509,-0.497,inactive
STX3 (syntaxin 3),SID160717502,0.849,inactive
STX3 (syntaxin 3),SID160717503,0.321,inactive
STX3 (syntaxin 3),SID160717504,0.0656,inactive
VIP (vasoactive intestinal peptide),SID160718765,1.29,inactive
VIP (vasoactive intestinal peptide),SID160718766,-1.13,inactive
VIP (vasoactive intestinal peptide),SID160718767,1.12,inactive
SACS (sacsin molecular chaperone),SID160737900,-0.359,inactive
SACS (sacsin molecular chaperone),SID160737901,0.616,inactive
SACS (sacsin molecular chaperone),SID160737903,-0.182,inactive

In a second layout: results already given
{"gene knocked down":"CCN4 (cellular communication network factor 4)","PubChem SID":"SID160720946","G2 robust z-score":0.799,"Call":"inactive"}
{"gene knocked down":"LOC107984399","PubChem SID":"SID160772506","G2 robust z-score":-1.18,"Call":"inactive"}
{"gene knocked down":"LOC107984399","PubChem SID":"SID160772508","G2 robust z-score":0.998,"Call":"inactive"}
{"gene knocked down":"LOC107984399","PubChem SID":"SID160772509","G2 robust z-score":-0.497,"Call":"inactive"}
{"gene knocked down":"STX3 (syntaxin 3)","PubChem SID":"SID160717502","G2 robust z-score":0.849,"Call":"inactive"}

Continued:
gene knocked down,PubChem SID,G2 robust z-score,Call
VASH2 (vasohibin 2),SID160734953,0.274,inactive
VASH2 (vasohibin 2),SID160749484,3.58,inactive
VASH2 (vasohibin 2),SID160749485,0.294,inactive
RPL18P4 (ribosomal protein L18 pseudogene 4),SID160724815,2.67,inactive
RPL18P4 (ribosomal protein L18 pseudogene 4),SID160733291,-0.389,inactive
RPL18P4 (ribosomal protein L18 pseudogene 4),SID160757453,4.21,inactive
RPL18P4 (ribosomal protein L18 pseudogene 4),SID160757454,0.354,inactive
RPL18P4 (ribosomal protein L18 pseudogene 4),SID160766803,-0.613,inactive
RPL18P4 (ribosomal protein L18 pseudogene 4),SID160766804,-1.02,inactive
ZNF512 (zinc finger protein 512),SID160752277,0.237,inactive
ZNF512 (zinc finger protein 512),SID160752278,0.284,inactive
ZNF512 (zinc finger protein 512),SID160752280,-0.642,inactive
BEND7 (BEN domain containing 7),SID160761846,-1.17,inactive
BEND7 (BEN domain containing 7),SID160761847,-0.224,inactive
BEND7 (BEN domain containing 7),SID160761848,-0.257,inactive
MYO7B (myosin VIIB),SID160777720,1.39,inactive
MYO7B (myosin VIIB),SID160777721,-0.0742,inactive
MYO7B (myosin VIIB),SID160777722,2.2,inactive
RBL1 (RB transcriptional corepressor like 1),SID160715724,-0.258,inactive
RBL1 (RB transcriptional corepressor like 1),SID160715725,4.1,inactive
RBL1 (RB transcriptional corepressor like 1),SID160715726,-0.795,inactive
BDKRB2 (bradykinin receptor B2),SID160724963,-0.785,inactive
BDKRB2 (bradykinin receptor B2),SID160725039,6.05,active
BDKRB2 (bradykinin receptor B2),SID160725116,0.545,inactive
SLC17A9,SID160747260,-1.08,inactive
SLC17A9,SID160747261,0.87,inactive
SLC17A9,SID160747262,-1.13,inactive
SLCO6A1,SID160757247,-0.139,inactive
SLCO6A1,SID160757248,0.835,inactive
SLCO6A1,SID160757250,2.33,inactive
RPS25 (ribosomal protein S25),SID160716207,1.91,inactive
RPS25 (ribosomal protein S25),SID160716208,0.57,inactive
RPS25 (ribosomal protein S25),SID160716209,3.72,inactive
SGMS1 (sphingomyelin synthase 1),SID160762587,-0.0756,inactive
SGMS1 (sphingomyelin synthase 1),SID160762588,0.264,inactive
SGMS1 (sphingomyelin synthase 1),SID160762589,-0.225,inactive
ATP4A (ATPase H+/K+ transporting subunit alpha),SID160721731,10.2,active
ATP4A (ATPase H+/K+ transporting subunit alpha),SID160721742,1.21,inactive
ATP4A (ATPase H+/K+ transporting subunit alpha),SID160721753,-0.799,inactive
